From article PMC6546063
Results are given in words; binding and its absence hold for the method and conditions named. In cells and extracts the contact can be indirect. These calls come from enrichment with a bait or labelling near it, and not all partners need be listed.

The chains behind the UniProt entries cited, without tags or fusion partners.
UniProt O00308: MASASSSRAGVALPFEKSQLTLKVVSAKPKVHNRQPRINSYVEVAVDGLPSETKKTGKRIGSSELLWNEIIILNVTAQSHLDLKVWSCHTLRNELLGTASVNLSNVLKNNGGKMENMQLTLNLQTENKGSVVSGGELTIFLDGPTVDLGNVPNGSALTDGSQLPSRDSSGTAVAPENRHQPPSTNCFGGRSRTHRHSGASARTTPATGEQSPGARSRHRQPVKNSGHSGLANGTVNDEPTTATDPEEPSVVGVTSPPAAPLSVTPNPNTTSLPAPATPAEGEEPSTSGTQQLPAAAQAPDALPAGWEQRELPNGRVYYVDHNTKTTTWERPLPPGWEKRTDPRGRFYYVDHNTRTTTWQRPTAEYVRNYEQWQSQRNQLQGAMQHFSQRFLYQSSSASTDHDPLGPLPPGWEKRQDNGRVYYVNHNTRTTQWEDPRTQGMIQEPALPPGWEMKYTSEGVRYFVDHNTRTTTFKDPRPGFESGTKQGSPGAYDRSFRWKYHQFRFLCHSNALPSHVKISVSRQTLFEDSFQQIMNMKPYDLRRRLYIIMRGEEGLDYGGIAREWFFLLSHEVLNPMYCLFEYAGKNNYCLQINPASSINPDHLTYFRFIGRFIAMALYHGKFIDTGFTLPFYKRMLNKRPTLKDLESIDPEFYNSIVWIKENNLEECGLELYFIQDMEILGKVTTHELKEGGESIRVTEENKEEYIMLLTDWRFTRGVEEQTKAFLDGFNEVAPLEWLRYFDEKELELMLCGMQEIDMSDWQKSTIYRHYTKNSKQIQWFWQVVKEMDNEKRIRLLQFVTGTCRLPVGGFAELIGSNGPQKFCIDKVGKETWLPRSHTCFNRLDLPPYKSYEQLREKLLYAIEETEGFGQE
UniProt P13010: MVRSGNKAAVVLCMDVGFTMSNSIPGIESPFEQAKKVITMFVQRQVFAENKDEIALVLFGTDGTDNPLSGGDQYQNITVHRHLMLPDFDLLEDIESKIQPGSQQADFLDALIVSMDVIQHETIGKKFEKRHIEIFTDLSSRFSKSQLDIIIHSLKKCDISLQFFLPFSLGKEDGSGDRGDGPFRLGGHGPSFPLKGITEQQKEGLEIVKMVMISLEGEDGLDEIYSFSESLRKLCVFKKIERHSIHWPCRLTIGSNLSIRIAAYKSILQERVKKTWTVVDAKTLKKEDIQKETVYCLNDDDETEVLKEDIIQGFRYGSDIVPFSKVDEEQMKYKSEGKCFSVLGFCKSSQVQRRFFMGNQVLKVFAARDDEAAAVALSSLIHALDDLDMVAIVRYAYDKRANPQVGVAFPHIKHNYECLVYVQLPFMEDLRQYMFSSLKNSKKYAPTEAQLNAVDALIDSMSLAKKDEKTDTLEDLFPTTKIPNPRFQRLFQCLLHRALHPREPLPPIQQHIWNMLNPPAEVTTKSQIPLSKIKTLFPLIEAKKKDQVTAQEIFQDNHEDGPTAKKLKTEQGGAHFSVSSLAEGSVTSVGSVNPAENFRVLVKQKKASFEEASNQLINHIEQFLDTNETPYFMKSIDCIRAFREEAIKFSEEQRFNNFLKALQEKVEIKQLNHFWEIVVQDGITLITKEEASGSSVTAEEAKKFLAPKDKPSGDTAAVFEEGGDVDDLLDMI
UniProt P09874: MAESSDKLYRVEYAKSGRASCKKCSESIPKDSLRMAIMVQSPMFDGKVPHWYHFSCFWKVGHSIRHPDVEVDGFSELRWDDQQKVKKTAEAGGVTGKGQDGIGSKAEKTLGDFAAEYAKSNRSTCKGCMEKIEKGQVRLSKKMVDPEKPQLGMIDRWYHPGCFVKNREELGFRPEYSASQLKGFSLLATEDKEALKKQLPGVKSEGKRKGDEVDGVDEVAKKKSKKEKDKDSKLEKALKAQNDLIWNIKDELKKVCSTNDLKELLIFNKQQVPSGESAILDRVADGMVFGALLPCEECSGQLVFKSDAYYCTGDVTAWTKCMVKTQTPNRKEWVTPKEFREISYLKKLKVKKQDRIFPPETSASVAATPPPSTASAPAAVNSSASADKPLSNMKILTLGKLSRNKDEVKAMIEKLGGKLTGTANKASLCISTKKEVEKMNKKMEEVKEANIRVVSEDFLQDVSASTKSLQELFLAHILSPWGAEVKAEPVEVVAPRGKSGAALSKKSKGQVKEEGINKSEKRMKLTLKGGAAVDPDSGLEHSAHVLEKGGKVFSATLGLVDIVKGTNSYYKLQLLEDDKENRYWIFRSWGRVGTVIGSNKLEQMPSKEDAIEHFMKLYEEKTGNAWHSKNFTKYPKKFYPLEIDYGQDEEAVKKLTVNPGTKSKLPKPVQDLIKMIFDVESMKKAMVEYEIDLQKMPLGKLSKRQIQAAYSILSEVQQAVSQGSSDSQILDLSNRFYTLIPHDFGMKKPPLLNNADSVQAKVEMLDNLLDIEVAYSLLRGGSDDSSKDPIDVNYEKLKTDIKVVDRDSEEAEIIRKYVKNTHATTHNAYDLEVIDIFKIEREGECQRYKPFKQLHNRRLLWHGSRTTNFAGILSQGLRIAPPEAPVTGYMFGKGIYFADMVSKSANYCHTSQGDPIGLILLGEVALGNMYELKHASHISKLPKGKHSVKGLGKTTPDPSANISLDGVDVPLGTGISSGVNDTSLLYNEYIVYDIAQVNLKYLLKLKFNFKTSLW

Molecular target: GFP-tagged WWP2 (human) (UniProt O00308)
Test: affinity purification with mass spectrometry; SILAC: U2OS cells with GFP-WWP2 (H) or GFP-NLS (L) lysed in EBC buffer (50 mM Tris pH 7.5, 150 mM NaCl, 0.5% NP-40, 2.5 mM MgCl2) with benzonase; GFP-Trap-A beads, washed with EBC-300; at least twofold enriched over control

Row | binding | Substance
1 | binds | Ku80 (endogenous) (from UniProt P13010 1-732)
2 | binds | PARP1 (from UniProt P09874 1-1014) (enzyme)
